Test results: the supplement of paper PMC10849652
This is one part of the list. Residues, ends and D or L forms follow the SMILES beside them. *: point of attachment. Cbz = O=C(OCc1ccccc1)*

The chains behind the UniProt entries cited, without tags or fusion partners. Where a name states a change or a piece, a line headed by the entry shows the natural chain unless it says otherwise.
UniProt Q9NUD5: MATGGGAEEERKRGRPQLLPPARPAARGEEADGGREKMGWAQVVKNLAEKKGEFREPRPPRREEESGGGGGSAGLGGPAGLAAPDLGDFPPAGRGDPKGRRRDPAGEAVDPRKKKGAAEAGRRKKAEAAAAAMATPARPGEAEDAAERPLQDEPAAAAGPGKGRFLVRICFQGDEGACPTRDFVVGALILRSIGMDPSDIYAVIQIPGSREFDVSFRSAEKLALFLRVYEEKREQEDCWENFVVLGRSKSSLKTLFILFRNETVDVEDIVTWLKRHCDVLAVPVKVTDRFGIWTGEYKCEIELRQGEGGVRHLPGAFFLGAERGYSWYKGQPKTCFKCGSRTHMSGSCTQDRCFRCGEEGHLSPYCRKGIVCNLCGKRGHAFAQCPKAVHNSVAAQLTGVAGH
UniProt Q5T4F4: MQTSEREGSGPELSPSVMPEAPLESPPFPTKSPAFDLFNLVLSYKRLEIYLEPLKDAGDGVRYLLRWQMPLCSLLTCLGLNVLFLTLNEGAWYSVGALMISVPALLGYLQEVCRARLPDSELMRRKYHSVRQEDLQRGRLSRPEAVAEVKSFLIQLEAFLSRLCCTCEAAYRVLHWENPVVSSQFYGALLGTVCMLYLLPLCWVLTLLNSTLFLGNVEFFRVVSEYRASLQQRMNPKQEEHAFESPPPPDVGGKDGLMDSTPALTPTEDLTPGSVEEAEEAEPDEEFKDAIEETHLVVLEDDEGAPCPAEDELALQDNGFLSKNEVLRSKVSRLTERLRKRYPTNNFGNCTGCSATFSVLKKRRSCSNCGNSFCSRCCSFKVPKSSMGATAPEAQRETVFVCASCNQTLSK
UniProt Q9NUE0: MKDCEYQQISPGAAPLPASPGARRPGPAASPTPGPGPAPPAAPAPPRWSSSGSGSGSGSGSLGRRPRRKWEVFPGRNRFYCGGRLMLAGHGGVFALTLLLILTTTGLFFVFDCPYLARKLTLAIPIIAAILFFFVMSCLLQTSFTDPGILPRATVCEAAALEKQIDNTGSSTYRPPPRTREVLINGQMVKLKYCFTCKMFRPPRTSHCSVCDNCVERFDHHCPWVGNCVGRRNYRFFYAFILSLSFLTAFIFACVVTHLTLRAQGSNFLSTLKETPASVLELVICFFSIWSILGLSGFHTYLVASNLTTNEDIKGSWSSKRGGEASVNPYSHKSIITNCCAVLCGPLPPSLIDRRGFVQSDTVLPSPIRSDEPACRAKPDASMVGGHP
UniProt O95619, whole entry, looked up: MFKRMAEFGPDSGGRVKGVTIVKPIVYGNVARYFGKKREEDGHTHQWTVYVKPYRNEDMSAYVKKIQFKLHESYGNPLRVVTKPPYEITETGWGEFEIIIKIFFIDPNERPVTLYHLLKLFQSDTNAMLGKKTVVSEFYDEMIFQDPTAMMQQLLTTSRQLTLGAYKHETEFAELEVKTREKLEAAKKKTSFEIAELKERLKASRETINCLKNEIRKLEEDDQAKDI
UniProt P62258: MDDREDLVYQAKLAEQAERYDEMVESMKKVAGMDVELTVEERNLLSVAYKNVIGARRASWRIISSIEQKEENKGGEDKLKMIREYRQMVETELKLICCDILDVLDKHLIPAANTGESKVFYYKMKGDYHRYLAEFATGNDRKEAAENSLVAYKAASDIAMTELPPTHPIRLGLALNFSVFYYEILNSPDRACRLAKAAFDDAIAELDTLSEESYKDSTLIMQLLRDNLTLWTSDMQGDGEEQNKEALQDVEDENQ
UniProt Q9GZM5: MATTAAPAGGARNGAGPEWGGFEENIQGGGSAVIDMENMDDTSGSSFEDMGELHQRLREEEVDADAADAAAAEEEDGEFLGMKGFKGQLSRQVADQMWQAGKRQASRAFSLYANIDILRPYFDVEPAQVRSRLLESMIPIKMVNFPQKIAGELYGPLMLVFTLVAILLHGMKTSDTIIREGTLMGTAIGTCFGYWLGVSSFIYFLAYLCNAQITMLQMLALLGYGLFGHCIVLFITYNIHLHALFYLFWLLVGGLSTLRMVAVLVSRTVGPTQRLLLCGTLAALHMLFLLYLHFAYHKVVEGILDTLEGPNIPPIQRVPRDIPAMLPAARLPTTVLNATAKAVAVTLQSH
UniProt Q96GY0: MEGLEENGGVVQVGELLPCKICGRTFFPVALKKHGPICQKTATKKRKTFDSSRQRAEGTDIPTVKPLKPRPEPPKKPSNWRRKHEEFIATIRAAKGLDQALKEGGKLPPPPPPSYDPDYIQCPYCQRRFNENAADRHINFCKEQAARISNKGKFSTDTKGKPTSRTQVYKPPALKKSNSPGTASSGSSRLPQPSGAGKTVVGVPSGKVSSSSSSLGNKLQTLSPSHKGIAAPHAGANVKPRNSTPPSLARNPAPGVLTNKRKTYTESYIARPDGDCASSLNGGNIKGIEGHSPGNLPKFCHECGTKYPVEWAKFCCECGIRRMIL
UniProt Q13426: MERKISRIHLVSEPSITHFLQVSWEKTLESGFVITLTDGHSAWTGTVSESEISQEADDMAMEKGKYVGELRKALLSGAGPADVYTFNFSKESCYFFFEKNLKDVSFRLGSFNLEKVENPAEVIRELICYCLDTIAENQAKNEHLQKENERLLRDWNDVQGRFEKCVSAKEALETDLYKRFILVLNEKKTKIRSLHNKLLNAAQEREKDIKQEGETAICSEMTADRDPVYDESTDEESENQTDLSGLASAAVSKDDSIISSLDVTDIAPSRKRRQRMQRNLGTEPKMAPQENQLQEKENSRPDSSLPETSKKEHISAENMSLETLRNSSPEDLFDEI
UniProt Q5T200: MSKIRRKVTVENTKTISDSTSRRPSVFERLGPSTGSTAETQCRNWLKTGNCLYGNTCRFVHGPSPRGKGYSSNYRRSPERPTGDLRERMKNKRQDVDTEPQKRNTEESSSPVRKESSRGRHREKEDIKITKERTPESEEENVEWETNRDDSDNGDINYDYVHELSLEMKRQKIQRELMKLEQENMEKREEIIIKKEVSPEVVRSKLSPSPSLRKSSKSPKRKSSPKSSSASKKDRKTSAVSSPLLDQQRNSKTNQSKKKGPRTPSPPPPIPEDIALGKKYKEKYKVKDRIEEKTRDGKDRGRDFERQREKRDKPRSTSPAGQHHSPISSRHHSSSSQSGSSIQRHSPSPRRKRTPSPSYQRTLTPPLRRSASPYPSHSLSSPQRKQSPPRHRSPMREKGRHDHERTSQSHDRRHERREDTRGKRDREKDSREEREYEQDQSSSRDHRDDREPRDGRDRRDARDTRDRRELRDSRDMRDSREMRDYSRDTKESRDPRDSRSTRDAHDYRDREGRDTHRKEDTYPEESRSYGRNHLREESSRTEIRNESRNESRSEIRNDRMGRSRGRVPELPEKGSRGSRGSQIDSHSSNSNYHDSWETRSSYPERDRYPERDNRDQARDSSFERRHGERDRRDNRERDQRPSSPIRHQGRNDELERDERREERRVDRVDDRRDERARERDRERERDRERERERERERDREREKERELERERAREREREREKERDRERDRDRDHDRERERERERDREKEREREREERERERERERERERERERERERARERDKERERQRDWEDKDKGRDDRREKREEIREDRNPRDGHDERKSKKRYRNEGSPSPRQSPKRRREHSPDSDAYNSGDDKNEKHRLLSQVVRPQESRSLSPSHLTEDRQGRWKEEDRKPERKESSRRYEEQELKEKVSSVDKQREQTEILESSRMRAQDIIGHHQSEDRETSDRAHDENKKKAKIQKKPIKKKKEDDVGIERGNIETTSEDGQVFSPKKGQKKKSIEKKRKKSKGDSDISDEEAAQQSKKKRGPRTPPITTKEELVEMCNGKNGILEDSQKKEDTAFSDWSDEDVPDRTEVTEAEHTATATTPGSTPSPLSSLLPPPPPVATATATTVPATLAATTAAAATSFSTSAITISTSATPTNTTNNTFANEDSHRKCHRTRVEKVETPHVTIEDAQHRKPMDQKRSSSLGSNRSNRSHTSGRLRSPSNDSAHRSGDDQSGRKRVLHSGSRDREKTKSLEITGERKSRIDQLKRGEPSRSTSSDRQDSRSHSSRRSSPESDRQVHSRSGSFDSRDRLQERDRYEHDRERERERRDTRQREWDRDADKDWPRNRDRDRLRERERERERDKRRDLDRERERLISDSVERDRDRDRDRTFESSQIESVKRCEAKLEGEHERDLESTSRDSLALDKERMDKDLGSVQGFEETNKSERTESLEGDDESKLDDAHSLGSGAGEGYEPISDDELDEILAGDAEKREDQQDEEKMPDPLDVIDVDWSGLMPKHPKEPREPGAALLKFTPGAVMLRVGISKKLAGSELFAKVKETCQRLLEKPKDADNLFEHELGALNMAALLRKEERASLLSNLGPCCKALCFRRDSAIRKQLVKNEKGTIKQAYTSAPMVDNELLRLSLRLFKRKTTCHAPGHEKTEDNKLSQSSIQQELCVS
UniProt O15498: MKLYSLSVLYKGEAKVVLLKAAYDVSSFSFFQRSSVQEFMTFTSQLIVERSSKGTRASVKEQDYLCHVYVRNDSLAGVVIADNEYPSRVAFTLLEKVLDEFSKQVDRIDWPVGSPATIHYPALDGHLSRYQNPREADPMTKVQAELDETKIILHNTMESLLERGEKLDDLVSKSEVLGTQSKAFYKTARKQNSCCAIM
UniProt O75844: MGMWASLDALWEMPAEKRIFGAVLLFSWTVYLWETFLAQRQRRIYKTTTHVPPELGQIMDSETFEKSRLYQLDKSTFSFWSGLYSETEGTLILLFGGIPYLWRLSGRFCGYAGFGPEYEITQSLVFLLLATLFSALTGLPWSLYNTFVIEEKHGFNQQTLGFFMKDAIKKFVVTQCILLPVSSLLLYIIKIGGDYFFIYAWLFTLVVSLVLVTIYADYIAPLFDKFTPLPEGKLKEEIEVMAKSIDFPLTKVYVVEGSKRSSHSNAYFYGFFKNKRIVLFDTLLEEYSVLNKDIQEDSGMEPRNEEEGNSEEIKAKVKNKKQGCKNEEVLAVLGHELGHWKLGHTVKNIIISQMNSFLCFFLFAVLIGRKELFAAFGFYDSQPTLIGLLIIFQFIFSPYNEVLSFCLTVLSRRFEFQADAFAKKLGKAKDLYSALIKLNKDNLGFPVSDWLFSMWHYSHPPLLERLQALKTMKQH
UniProt Q86U90: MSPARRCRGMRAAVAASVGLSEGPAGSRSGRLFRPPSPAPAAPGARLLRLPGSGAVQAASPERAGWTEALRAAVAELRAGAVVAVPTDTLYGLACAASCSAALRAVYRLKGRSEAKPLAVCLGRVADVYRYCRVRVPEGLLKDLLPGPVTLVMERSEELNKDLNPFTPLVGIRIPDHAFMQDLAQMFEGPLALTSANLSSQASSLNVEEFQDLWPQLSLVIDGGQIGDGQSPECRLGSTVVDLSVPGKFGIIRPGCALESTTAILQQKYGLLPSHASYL
UniProt Q8WV99: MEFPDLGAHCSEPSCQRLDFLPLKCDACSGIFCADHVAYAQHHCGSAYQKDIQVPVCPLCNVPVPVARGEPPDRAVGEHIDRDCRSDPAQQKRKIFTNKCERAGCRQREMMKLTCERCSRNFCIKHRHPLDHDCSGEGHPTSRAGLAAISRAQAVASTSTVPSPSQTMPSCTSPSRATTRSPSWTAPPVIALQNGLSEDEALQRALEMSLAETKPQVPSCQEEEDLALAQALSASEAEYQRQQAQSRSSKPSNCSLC
UniProt Q9HBF4: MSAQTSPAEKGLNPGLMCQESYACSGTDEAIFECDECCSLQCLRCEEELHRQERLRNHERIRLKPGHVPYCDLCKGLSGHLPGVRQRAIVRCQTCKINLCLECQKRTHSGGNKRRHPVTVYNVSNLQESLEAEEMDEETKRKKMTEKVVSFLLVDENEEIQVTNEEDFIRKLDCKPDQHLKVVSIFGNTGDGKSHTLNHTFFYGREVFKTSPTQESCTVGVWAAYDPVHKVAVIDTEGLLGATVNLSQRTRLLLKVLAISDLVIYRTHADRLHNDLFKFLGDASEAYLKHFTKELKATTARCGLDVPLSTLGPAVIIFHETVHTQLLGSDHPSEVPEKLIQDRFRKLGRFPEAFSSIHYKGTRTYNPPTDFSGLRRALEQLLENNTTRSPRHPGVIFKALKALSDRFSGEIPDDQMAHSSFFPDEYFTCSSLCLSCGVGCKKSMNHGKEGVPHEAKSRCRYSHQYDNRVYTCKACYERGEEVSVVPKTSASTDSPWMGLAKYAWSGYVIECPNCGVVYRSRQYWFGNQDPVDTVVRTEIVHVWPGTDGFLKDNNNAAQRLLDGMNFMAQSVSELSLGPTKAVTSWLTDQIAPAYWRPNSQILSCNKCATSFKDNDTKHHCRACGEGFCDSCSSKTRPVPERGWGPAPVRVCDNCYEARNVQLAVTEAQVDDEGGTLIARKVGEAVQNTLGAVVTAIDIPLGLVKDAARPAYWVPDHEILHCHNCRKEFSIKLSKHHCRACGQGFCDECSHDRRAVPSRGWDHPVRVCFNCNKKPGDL

Columns and labels:
Assay in all cases: log2 fold change, soluble protein after heating vs DMSO (PISA); higher = thermal stabilisation; K562 cells, 10 uM, 30 min; active = over 0.2 and 3.5 SD of the protein, either way, in both replicates (recomputed)
erlotinib = compound: C#Cc1cccc(Nc2ncnc3cc(OCCOC)c(OCCOC)cc23)c1 [erlotinib]
Procedure, shortened: (§1)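 For each measurement, 10 μM compound was applied for 30 min to K562 cells at 2×10^6 cells/mL. Aliquots were heated for 3 min across 48°C-58°C, pooled, and extracted in PBS with 0.5% NP-40 at 4°C; the supernatant after 21,000xg for 90 min was soluble protein. This was quantified by TMTpro 16plex LC-MS/MS with channel sums equalised, and thermal stability was reported relative to control samples from duplicates, on a log2 fold-change scale.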

[1] = compound: C/C(=N\NC(=O)C1=CC(=CC=C1)S(=O)(=O)N2CCOCC2)/C3=C(C=CC(=C3)Cl)O
Procedure, shortened: as §1

[2] = compound: C1=CC(=C(C=C1Cl)C2=NC3=NC=CN=C3C(=N2)NC4=CC=NC=C4)F
Procedure, shortened: as §1

[3] = compound: C1=CC(=CC=C1C2=NC3=C(N2)C=C(C=C3)C(=O)N)OC4=CC=C(C=C4)Cl
Procedure, shortened: as §1

[4] = compound: C1=CC2=C(C=CC(=C2)/C=C\3/C(=O)NC(=NCC4=CC=CS4)S3)N=C1
Procedure, shortened: as §1

[5] = compound: C1=CC2=NC=CN=C2C=C1/C=C/3\C(=O)NC(=O)S3
Procedure, shortened: as §1

[6] = compound: C1=CC=C(C=C1)C2=NC(=C(N2)C3=CC=NC=C3)C4=CC(=C(C=C4)Cl)O
Procedure, shortened: as §1

[7] = compound: C1=CC=C2C(=C1)C3=NNC4=CC=CC(=C43)C2=O
Procedure, shortened: as §1

[8] = compound: C1CCN(C1)C(=O)NC2=CC=CC(=C2)NC3=NC=C(C(=N3)NCCC4=CN=CN4)Br
Procedure, shortened: as §1

[9] = compound: C1CN(CCC1(CC2=CC=C(C=C2)Cl)N)C3=NC=NC4=C3C=CN4
Procedure, shortened: as §1

IRAK-1-4 Inhibitor I = compound: C1COCCN1CCN2C3=CC=CC=C3N=C2NC(=O)C4=CC(=CC=C4)[N+](=O)[O-] [IRAK-1-4 Inhibitor I]
Procedure, shortened: as §1

ibrutinib = compound: C=CC(=O)N1CCC[C@@H](n2nc(-c3ccc(Oc4ccccc4)cc3)c3c(N)ncnc32)C1 [ibrutinib]
Procedure, shortened: as §1

[10] = compound: CC(=O)c1cnc2ccc(-c3cc(Cl)c(O)c(Cl)c3)nc2c1N[C@H]1CC[C@H](CN(C)C)CC1
Procedure, shortened: as §1

ralimetinib = compound: CC(C)(C)Cn1c(N)nc2ccc(-c3[nH]c(C(C)(C)C)nc3-c3ccc(F)cc3)nc21 [ralimetinib]
Procedure, shortened: as §1

[11] = compound: CC(C)(O)CC(=O)NCCn1ccc2ncnc(Nc3ccc(Oc4cccc(C(F)(F)F)c4)c(Cl)c3)c21
Procedure, shortened: as §1

[12] = compound: CC(C)C1=C2N=C(C=C(N2N=C1)NCC3=CC=CC=C3)NCCCCCCN
Procedure, shortened: as §1

[13] = compound: CC(C)C[C@@H](C=O)NC(=O)[C@H](CC(C)C)NC(=O)[C@H](CC(C)C)NC(=O)OCc1ccccc1
Procedure, shortened: as §1

pinometostat = compound: CC(C)N(C[C@H]1O[C@@H](n2cnc3c(N)ncnc32)[C@H](O)[C@@H]1O)[C@H]1C[C@@H](CCc2nc3cc(C(C)(C)C)ccc3[nH]2)C1 [pinometostat]
Procedure, shortened: as §1

[14] = compound: CC1=C(C(CC(=O)N1)C2=CC=C(C=C2)C(F)(F)F)C(=O)NC3=C(C=C4C(=C3)C=NN4)F
Procedure, shortened: as §1

[15] = compound: CC1=C(C2=C(C=C1)C(=O)C3=CC=CC=C3N2CCCN)C
Procedure, shortened: as §1

Measured: log2 fold change

ZCCHC3 (UniProt Q9NUD5)
inactive: erlotinib -0.103 | [1] -0.019 | [2] -0.303 | [3] 0.1 | [4] -0.046 | [5] 0.067 | [6] 0.015 | [7] -0.088 | [8] 0.02 | [9] -0.127 | IRAK-1-4 Inhibitor I -0.145 | ibrutinib 0.096 | [10] 0.169 | ralimetinib 0.128 | [11] 0.069 | [12] 0.011 | [13] 0.048 | pinometostat 0.166 | [14] -0.053 | [15] -0.37

ZFYVE27 isoform 2 (UniProt Q5T4F4)
inactive: erlotinib 0.003 | [1] 0.046 | [2] -0.035 | [3] -0.03 | [4] 0.003 | [5] 0.022 | [6] 0.001 | [7] 0.027 | [8] -0.217 | [9] 0.117 | IRAK-1-4 Inhibitor I 0.111 | ibrutinib -0.043 | [10] 0.004 | ralimetinib 0.078 | [11] -0.028 | [12] 0.025 | [13] 0.016 | pinometostat -0.012 | [14] 0.007 | [15] 0.077

ZDHHC18 (UniProt Q9NUE0)
inactive: erlotinib 0.007 | [1] 0.033 | [2] 0.07 | [3] 0.078 | [4] 0.048 | [5] 0.027 | [6] 0.098 | [7] -0.087 | [8] -0.142 | [9] -0.062 | IRAK-1-4 Inhibitor I 0.036 | ibrutinib -0.19 | [10] 0.013 | ralimetinib 0.099 | [11] -0.053 | [12] 0.034 | [13] -0.027 | pinometostat -0.003 | [14] -0.017 | [15] 0.062

YEATS4 (UniProt O95619)
inactive: erlotinib -0.061 | [1] 0.002 | [2] -0.041 | [3] 0.119 | [4] -0.031 | [5] 0.07 | [6] -0.049 | [7] 0.025 | [8] -0.011 | [9] 0.058 | IRAK-1-4 Inhibitor I -0.017 | ibrutinib -0.008 | [10] -0.016 | ralimetinib -0.029 | [11] 0.075 | [12] 0.153 | [13] 0.019 | pinometostat -0.004 | [14] -0.095 | [15] -0.029

YWHAE (UniProt P62258)
inactive: erlotinib 0.006 | [1] -0.023 | [2] 0.047 | [3] 0 | [4] -0.031 | [5] 0.027 | [6] -0.062 | [7] -0.016 | [8] 0.033 | [9] -0.009 | IRAK-1-4 Inhibitor I 0.032 | ibrutinib 0.017 | [10] 0.008 | ralimetinib -0.057 | [11] 0.012 | [12] 0.049 | [13] -0.019 | pinometostat -0.059 | [14] 0.009 | [15] -0.06

YIPF3 (UniProt Q9GZM5)
inactive: erlotinib 0.021 | [1] -0.021 | [2] -0.013 | [3] -0.008 | [4] 0.079 | [5] 0.018 | [6] 0.009 | [7] 0.007 | [8] -0.097 | [9] 0.024 | IRAK-1-4 Inhibitor I -0.003 | ibrutinib 0.008 | [10] -0.085 | ralimetinib -0.097 | [11] 0.031 | [12] -0.011 | [13] -0.027 | pinometostat -0.11 | [14] 0.006 | [15] 0.111

ZC2HC1A (UniProt Q96GY0)
inactive: erlotinib 0.057 | [1] -0.075 | [2] -0.013 | [3] -0.052 | [4] 0.014 | [5] 0.023 | [6] 0.205 | [7] -0.057 | [8] -0.2 | [9] 0.066 | IRAK-1-4 Inhibitor I 0 | ibrutinib -0.003 | [10] 0.087 | ralimetinib -0.021 | [11] -0.018 | [12] 0.115 | [13] 0.2 | pinometostat 0.216 | [14] -0.053 | [15] 0.206

Two consecutive records from above, quoted:
ZCCHC3 (UniProt Q9NUD5)
inactive: erlotinib -0.103 | [1] -0.019 | [2] -0.303 | [3] 0.1 | [4] -0.046 | [5] 0.067 | [6] 0.015 | [7] -0.088 | [8] 0.02 | [9] -0.127 | IRAK-1-4 Inhibitor I -0.145 | ibrutinib 0.096 | [10] 0.169 | ralimetinib 0.128 | [11] 0.069 | [12] 0.011 | [13] 0.048 | pinometostat 0.166 | [14] -0.053 | [15] -0.37

ZFYVE27 isoform 2 (UniProt Q5T4F4)
inactive: erlotinib 0.003 | [1] 0.046 | [2] -0.035 | [3] -0.03 | [4] 0.003 | [5] 0.022 | [6] 0.001 | [7] 0.027 | [8] -0.217 | [9] 0.117 | IRAK-1-4 Inhibitor I 0.111 | ibrutinib -0.043 | [10] 0.004 | ralimetinib 0.078 | [11] -0.028 | [12] 0.025 | [13] 0.016 | pinometostat -0.012 | [14] 0.007 | [15] 0.077

(further entries)

XRCC4 (UniProt Q13426)
inactive: erlotinib -0.006 | [1] -0.007 | [2] 0.039 | [3] -0.002 | [4] 0.02 | [5] 0.014 | [6] -0.034 | [7] 0 | [8] 0.013 | [9] -0.003 | IRAK-1-4 Inhibitor I 0.046 | ibrutinib 0.012 | [10] -0.023 | ralimetinib -0.029 | [11] 0.008 | [12] 0.041 | [13] 0.031 | pinometostat -0.029 | [14] -0.005 | [15] -0.016

ZC3H13 (UniProt Q5T200)
inactive: erlotinib 0.178 | [1] -0.355 | [2] -0.06 | [3] 0.071 | [4] 0.472 | [5] -0.057 | [6] -0.413 | [7] -0.144 | [8] 0.384 | [9] -0.016 | IRAK-1-4 Inhibitor I 0.075 | ibrutinib 0.02 | [10] -0.003 | ralimetinib -0.295 | [11] 0.023 | [12] 0.081 | [13] 0.187 | pinometostat 0.202 | [14] 0.074 | [15] -0.025

YKT6 (UniProt O15498)
inactive: erlotinib 0.013 | [1] 0.003 | [2] 0.054 | [3] -0.031 | [4] 0.013 | [5] 0.031 | [6] -0.024 | [7] -0.012 | [8] 0.019 | [9] 0.014 | IRAK-1-4 Inhibitor I 0.052 | ibrutinib -0.002 | [10] 0.004 | ralimetinib -0.06 | [11] 0.014 | [12] 0.04 | [13] -0.023 | pinometostat -0.032 | [14] 0.004 | [15] 0.016

ZMPSTE24 (UniProt O75844)
inactive: erlotinib -0.002 | [1] 0.004 | [2] 0.051 | [3] -0.02 | [4] -0.009 | [5] 0.039 | [6] -0.028 | [7] -0.005 | [8] 0 | [9] 0.06 | IRAK-1-4 Inhibitor I 0.03 | ibrutinib -0.025 | [10] 0.02 | ralimetinib -0.092 | [11] -0.023 | [12] 0.032 | [13] -0.006 | pinometostat -0.017 | [14] -0.013 | [15] 0.037

XPO7 (UniProt E7ESC6)
inactive: erlotinib -0.026 | [1] 0.064 | [2] 0.041 | [3] 0.022 | [4] -0.001 | [5] 0.011 | [6] 0.041 | [7] -0.009 | [8] 0.015 | [9] 0.031 | IRAK-1-4 Inhibitor I 0.05 | ibrutinib -0.004 | [10] 0.023 | ralimetinib -0.042 | [11] -0.014 | [12] -0.017 | [13] -0.053 | pinometostat -0.021 | [14] 0.002 | [15] -0.066

YRDC (UniProt Q86U90)
inactive: erlotinib 0.076 | [1] 0.02 | [2] 0.044 | [3] 0.002 | [4] 0.069 | [5] 0 | [6] 0.06 | [7] 0 | [8] -0.033 | [9] -0.021 | IRAK-1-4 Inhibitor I 0.037 | ibrutinib 0.01 | [10] -0.039 | ralimetinib 0.047 | [11] 0.051 | [12] -0.033 | [13] -0.007 | pinometostat -0.02 | [14] -0.019 | [15] 0.143

YBX3 isoform 2 (UniProt P16989)
inactive: erlotinib -0.089 | [1] -0.506 | [2] -0.406 | [3] 0.017 | [4] -0.236 | [5] 0.007 | [6] -0.229 | [7] -0.303 | [8] 0.135 | [9] -0.084 | IRAK-1-4 Inhibitor I -0.105 | ibrutinib 0.1 | [10] 0.188 | ralimetinib 0.053 | [11] 0.108 | [12] 0.096 | [13] -0.092 | pinometostat 0.153 | [14] 0.011 | [15] -0.649

ZFAND2B (UniProt Q8WV99)
inactive: erlotinib 0.079 | [1] 0.075 | [2] -0.017 | [3] 0.018 | [4] 0.002 | [5] 0.011 | [6] -0.02 | [7] -0.06 | [8] -0.053 | [9] 0.027 | IRAK-1-4 Inhibitor I 0.037 | ibrutinib 0.047 | [10] -0.006 | ralimetinib -0.063 | [11] -0.063 | [12] 0.089 | [13] 0.014 | pinometostat -0.032 | [14] -0.044 | [15] -0.011

ZFYVE1 (UniProt Q9HBF4)
inactive: erlotinib -0.008 | [1] 0.07 | [2] 0.199 | [3] 0.016 | [4] 0.147 | [5] 0.074 | [6] -0.034 | [7] -0.004 | [8] 0.095 | [9] -0.076 | IRAK-1-4 Inhibitor I -0.005 | ibrutinib -0.035 | [10] -0.109 | ralimetinib -0.014 | [11] -0.236 | [12] -0.05 | [13] 0.087 | pinometostat -0.045 | [14] -0.031 | [15] 0
